No constants are given. Whether binding was seen depends on the method and setting. Some binding calls cover weakened binding; strength is not graded here.
Molecular target: mouse κ-opioid receptor (KOR) tagged with EGFP (mouse) (UniProt P33534)
Test: radioligand binding; two-point displacement: 1 nM [3H]-diprenorphine with or without 10 μM or 100 nM peptide on membranes of HEK293 cells stably expressing the mouse KOR; only the binder purified

The chains behind the UniProt entries cited, without tags or fusion partners.
UniProt P33534: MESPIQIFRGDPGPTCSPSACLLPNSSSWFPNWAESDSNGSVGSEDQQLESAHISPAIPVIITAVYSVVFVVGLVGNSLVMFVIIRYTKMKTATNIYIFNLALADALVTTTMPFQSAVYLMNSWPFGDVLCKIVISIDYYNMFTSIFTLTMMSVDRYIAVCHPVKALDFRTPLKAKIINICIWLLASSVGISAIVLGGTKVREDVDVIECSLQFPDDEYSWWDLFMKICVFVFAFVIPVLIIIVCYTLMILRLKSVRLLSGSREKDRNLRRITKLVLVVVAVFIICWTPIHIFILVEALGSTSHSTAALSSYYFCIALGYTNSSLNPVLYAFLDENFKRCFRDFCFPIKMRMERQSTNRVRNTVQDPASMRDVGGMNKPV

Row | Binder | binding
1 | CTYGGFLRCRIRPKLK (backbone-cyclic (c-); one disulfide bond) [helianorphin-18] | binds
2 | CYGGFLRRCIRPKLK (backbone-cyclic (c-); one disulfide bond) [helianorphin-19] | binds
